# Results published in article PMC12040169 (PLOS Biology, 2025).
# The other results are listed elsewhere or left out.
# Tested on: T1, CTL2-GFP (C. trachomatis L2/434/Bu, GFP-expressing)
# T1 construct: L2/434/Bu, GFP-expressing
# Parameters: species or system HeLa; Intracellular C. trachomatis growth in HeLa cells, bulk GFP fluorescence relative to DMSO
# Conditions: bulk GFP, single well; 28.5 h, 10 µM; inhibitor
row,Structure (SMILES),% of control remaining
1,Cc1ccnc(Sc2nc3c(c(=O)[nH]c(=O)n3C)n2CCCc2ccccc2)n1 [CBK269353],132.408%
2,Cc1ccc(C(=O)N(C)C2CCCCC2)cc1C [CBK083667],105.445%
3,Cn1c(CN2CCN(C3CCCC3)C(=O)C2)nc2ccccc21 [CBK281577],94.3741%
4,CC(=O)N1CCc2c(nc(N(C)C)nc2NCCCOC(C)C)C1 [CBK306745],120.59%
5,Cc1ccc(C2C3=C(CC(C)(C)CC3=O)Nc3[nH][nH]c(=O)c32)o1 (stereo not shown) [CBK288147],117.616%
6,O=C(O)CCc1ccc(-c2cc(N3CCN(c4ccccn4)CC3)ncn2)cc1 [CBK037821],101.046%
7,COc1cc(C2NC(C(=O)O)Cc3c2[nH]c2ccccc32)cc(OC)c1OC (stereo not shown) [CBK219193],94.5791%
8,CNC(=O)c1cccc(NC(=O)c2cc(Br)cnc2NCC2CC2)c1 [CBK076380],90.3637%
9,CC(=O)c1ccc(N(C)C)cc1 [CBK033830],111.073%
10,Cc1ccccc1OCC(=O)N1CC(=O)Nc2ccccc21 [CBK300535],124.727%
11,Clc1ccc(COc2cc(N3CCCN(CC4CC4)CC3)ncn2)cc1Cl [CBK084070],144.419%
12,CCOc1ccc(S(=O)(=O)N(CC)CC(=O)O)cc1C [CBK269770],146.602%
13,CCc1nnc(NS(=O)(=O)c2ccc(NC(=S)NC(=O)c3ccco3)cc2)s1 [CBK018917],15.0642%
14,CC(=O)c1c(C)nn2c3ccccc3n(CCN3CCOCC3)c12 [CBK262709C],101.485%
15,O=C(CSc1ccccc1[N+](=O)[O-])Oc1ccccc1 [CBK265501],112.723%
16,CCn1c(C2CCN(C(=O)CCCn3cncn3)CC2)nn(C)c1=O [CBK307326],89.8258%
17,Cc1cc(C)c2[nH]c(C(=O)NCc3c(C)n[nH]c3C)c(C)c2c1 [CBK283254],112.607%
18,CCN(CC)Cn1nc(Nc2ccccc2)n(-c2ccccc2)c1=S [CBK261672],100%
19,Cc1cccc(N2CCN(CCCC(c3ccc(F)cc3)c3ccc(F)cc3)CC2)n1 [CBK025113C],104.936%
20,O=S1(=O)CCC(SCc2ccccc2)C1 (stereo not shown) [CBK019237],142.706%
21,O=C(O)c1cc2oc3ccccc3c3ccccc3oc2cc1C(=O)Nc1cccc([N+](=O)[O-])c1 [CBK265500],120.283%
22,O=c1c2cnn(-c3ccccc3)c2nc(Cc2ccccc2)n1-c1cccc2ccccc12 [CBK262316],121.395%
23,CC1CCC(NC(=O)CN2C3CCC2CC(O)(c2ccco2)C3)CC1 (stereo not shown) [CBK284036],131.225%
24,NC(=O)CN1CC2(CCN(Cc3ccc(Cl)c(Cl)c3)CC2)c2ccccc21 [CBK126775],102.02%
25,CCOC(=O)N1CCN(S(=O)(=O)c2ccc3oc(=O)ccc3c2)CC1 [CBK305870],114.416%
26,Cc1cc(NS(=O)(=O)c2ccc3oc(=O)ccc3c2)n(C)n1 [CBK067250],128.636%
27,O=C(CC1C(=O)N(c2cccc(Cl)c2)C(=O)N1CCc1cccs1)Nc1ccccc1 (stereo not shown) [CBK267499],121.399%

# Pulled by compound from the list above, 3 records:
row,Structure (SMILES),% of control remaining
20,O=S1(=O)CCC(SCc2ccccc2)C1 (stereo not shown) [CBK019237],142.706%
7,COc1cc(C2NC(C(=O)O)Cc3c2[nH]c2ccccc32)cc(OC)c1OC (stereo not shown) [CBK219193],94.5791%
12,CCOc1ccc(S(=O)(=O)N(CC)CC(=O)O)cc1C [CBK269770],146.602%

# Continuation:

row,Structure (SMILES),% of control remaining
1,O=c1[nH]c(=O)c2cc(S(=O)(=O)NCCN3CCc4ccccc43)ccc2[nH]1 [CBK286360],134.866%
2,Oc1cccc2ccc(/C=C/c3ccc(-c4ccccc4Cl)o3)nc12 [CBK264445],124.976%
3,CC(=O)N1CCCc2cc(C(O)CN3CCN(c4cccc(C)c4)CC3)ccc21 (stereo not shown) [CBK286457],110.146%
4,O=c1cc(CN2CCC[C@@H]2CN2CCCC2)[nH]c(=O)[nH]1 [CBK149108],92.78%
5,O=C(O)COc1ccc2c(=O)c(Oc3ccc(Cl)cc3)c(C(F)(F)F)oc2c1 [CBK296087],126.147%
6,O=C1N[C@@H]2CCN(C(=O)Cc3ccc(O)cc3)C[C@@H]2C/C=C/CCOc2ccccc21 [CBK292043],122.304%
7,CCn1nc(C(C)C)cc1C(=O)NCCN1CCC(C)CC1 [CBK282107],131.847%
8,O=C(Nc1cc2ccccc2c(Br)n1)N[C@@H]1C[C@H]1c1ccccc1 [CBK063276],100%
9,CCCC12CN3CC(C)(CN(C1)C31C(=O)Nc3ccc(C)cc31)C2=O (stereo not shown) [CBK268491],102.305%
10,CS(=O)(=O)N(CC(=O)Nc1ccccc1C(F)(F)F)Cc1ccc(Cl)cc1 [CBK267854],130.851%
11,Cc1ccccc1C1(O)CCN(CC(O)c2ccccc2)CC1 (stereo not shown) [CBK282491],131.726%
12,Cc1ncc(CN2CCCC(Cc3nc4ccccc4[nH]3)C2)s1 (stereo not shown) [CBK281902],130.397%
13,Cc1ccc(C)c2nc3c(cc12)CN(C1CC1)C(=O)CO3 [CBK282858],114.827%
14,CN(C)c1ccc(/C=C2/C(=N)N3N=C(c4ccccc4Cl)SC3=NC2=O)cc1 [CBK097554],137.24%
15,CC(C)/N=C1/N[C@@H]2CS(=O)(=O)C[C@H]2O1 [CBK019692G],134.625%
16,O=C1CC[C@@H](NCc2ccoc2)[C@H](c2cc(F)cc(F)c2)N1 [CBK282912],106.518%
17,CC1CCCN(Cc2ccccc2[N+](=O)[O-])C1 (stereo not shown) [CBK261862],82.1864%
18,O=C(NC(Cc1ccsc1)c1nccs1)C1CC2C=CC1O2 (stereo not shown) [CBK285096],105.672%
19,COc1cccc(C2(O)CCCC3CN(C(C)=O)CC32)c1 (stereo not shown) [CBK283242],122.989%
20,CCCc1cc(C(N)=O)cc(CCC)c1OCC [CBK015537],89.3318%
21,COc1cc(OC)cc(C(=O)Nc2cc(C)c3c(=O)oc4ccccc4c3n2)c1 [CBK291221],115.863%
22,CC1(C)CC(=O)C2=C(C1)Nc1ncnn1C2c1ccccc1F (stereo not shown) [CBK266446],92.7517%
23,C[N+]1(c2ccccc2)CCC(N)=N1 (stereo not shown) [CBK262213I],103.047%
24,Cc1cccc(-c2noc(C)c2C(=O)NCCn2ccnc2C)c1 [CBK282633],97.6758%
25,CC(C)Oc1cncc(Cl)n1 [CBK113321],106.674%
26,Cc1onc(-c2ccccc2)c1C(=O)NCc1ccccc1 [CBK200116],111.167%
27,Cc1ccc(CN(CCN(C)C)Cc2c(C)nn(C(C)C)c2C)o1 [CBK283235],129.423%

row,Structure (SMILES),% of control remaining
1,O=C(O)CCSc1cccc(C(F)(F)F)c1 [CBK012986],105.769%
2,O=C(CN(c1ccccc1)S(=O)(=O)c1ccccc1[N+](=O)[O-])Nc1ccccc1 [CBK263777],105.856%
3,COc1ccc(C(=O)NC(NC(=S)Nc2cccc3cccnc23)C(Cl)(Cl)Cl)cc1 (stereo not shown) [CBK261028],54.8995%
4,CCOc1ccc(NC(=O)c2ccc(S(=O)(=O)N(C)C)cc2)c([N+](=O)[O-])c1 [CBK263396],124.816%
5,O=c1n(-c2ccc(OC(F)(F)F)cc2)ccn1S(=O)(=O)c1ccccc1 [CBK106655],100%
6,O=c1[nH]c2c(-c3ccccc3)nnn2c2ccccc12 [CBK288047],123.491%
7,CN(c1ncc(-c2cc3ccccc3o2)cc1C(=O)NCC(F)(F)F)S(C)(=O)=O [CBK106479],134.095%
8,CC(C)(C)OC(=O)N1CCC(NCc2ccccn2)CC1 [CBK304603],123.411%
9,CCOC(=O)N1CCC(NC(=O)N2CCCCC2CO)CC1 (stereo not shown) [CBK155991],106.129%
10,CC(=O)Nc1cc(C(=O)CSc2nnnn2-c2ccc(C)c(C)c2)ccc1O [CBK295143],165.141%
11,COc1cc(C2CC(=O)N(c3cc(C)on3)C(=O)C2)cc(OC)c1OC [CBK006810],140.212%
12,COc1ccccc1-c1nccnc1NCc1cc(OC)c(OC)c(OC)c1 [CBK036642],187.423%
13,CCOc1ccc2nc(SCC(=O)Nc3c(C)n(C)n(-c4ccccc4)c3=O)sc2c1 [CBK267229],118.286%
14,Cc1c(C(=O)N(C)CC(C)C)nnn1-c1ccc2ncccc2c1 [CBK305161],98.0072%
15,O=C(CSc1nnc(-c2ccco2)[nH]1)c1ccc(O)cc1O [CBK264392],118.745%
16,O=C(Nc1cc(Cl)nc(Cl)c1)N(Cc1ccc(-c2ccccc2)cc1)CC1CCNCC1 [CBK049794],37.4504%
17,NS(=O)(=O)c1ccc(NC(=O)c2ccc(NC(=O)C3COc4ccccc4O3)cc2)cc1 (stereo not shown) [CBK266573],135.486%
18,Cc1nc2ccc(C(=O)NC(C)(C)CN3CCCC(C)C3)cc2[nH]1 (stereo not shown) [CBK282629],143.281%
19,CCN1C(=O)CC2(C1=O)C(=O)N(Cc1cccc(CN3C(=O)CCC3=O)c1)c1ccccc12 (stereo not shown) [CBK075508],138.819%
20,CCOC(=O)Cn1ccc2ccnc(-c3cccs3)c21 [CBK285200],113.3%
21,COc1ccc(-c2cn3ccnc3c(N3CCCCC3CO)n2)cc1OC (stereo not shown) [CBK066230],134.463%
22,CCC(=O)N1CCN(c2ccccc2NC(=O)c2ccc(C#N)cc2F)CC1 [CBK270110],116.523%
23,O=S(=O)(c1ccc(Cl)s1)N1CCN(c2ccccn2)CC1 [CBK270305],77.2133%
24,O=C(O)C[C@@H]1CCN(C(=O)Nc2ccccc2)C[C@@H]1CCN1CCCCC1 [CBK288782],117.766%
25,CCS(=O)(=O)Nc1cc(C(F)(F)F)ccc1Cl [CBK111339],85.7976%
